No constants are given. Whether binding was seen depends on the method and setting. In cells and extracts the contact can be indirect. Some entries that bind do so weakly or less than the wild type.

Assay [1] deals with T1, calnexin (human (endogenous in HEK-293T and HeLa)) (UniProt P27824).
T1 sequence: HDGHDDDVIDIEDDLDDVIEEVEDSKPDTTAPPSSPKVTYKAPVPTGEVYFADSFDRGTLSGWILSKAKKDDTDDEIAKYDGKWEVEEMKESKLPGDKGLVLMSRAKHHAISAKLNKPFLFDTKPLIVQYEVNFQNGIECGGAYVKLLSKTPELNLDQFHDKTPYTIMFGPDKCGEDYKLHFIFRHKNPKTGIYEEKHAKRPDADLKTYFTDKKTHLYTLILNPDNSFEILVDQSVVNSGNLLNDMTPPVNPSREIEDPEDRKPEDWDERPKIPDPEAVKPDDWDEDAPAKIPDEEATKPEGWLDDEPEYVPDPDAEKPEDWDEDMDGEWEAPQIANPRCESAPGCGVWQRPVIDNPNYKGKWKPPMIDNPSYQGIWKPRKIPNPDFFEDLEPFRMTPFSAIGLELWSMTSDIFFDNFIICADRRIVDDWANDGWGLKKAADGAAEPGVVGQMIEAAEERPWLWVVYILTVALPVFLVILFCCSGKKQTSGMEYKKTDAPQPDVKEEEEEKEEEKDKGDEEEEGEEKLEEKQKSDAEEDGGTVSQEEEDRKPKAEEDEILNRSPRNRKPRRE
The assay can be described thus: co-IP; HEK-293T transfected, CHAPS lysate; immunoprecipitation with anti-calnexin, blot with anti-E5-tag (anti-AU1 or anti-HA).

For assay [2], the target named is AU1-tagged codon-optimised HPV16 E5 (human papillomavirus type 16) (UniProt P06927). Nature of the assay: co-IP; HeLa transiently transfected, CHAPS lysate 24 h later; immunoprecipitation with anti-AU1, blot with anti-calnexin and anti-HLA-B, -C mAb HC10.
Assay [3] has as its target HA-tagged HPV16 E5 (pCI-HPV16-E5-HA) (human papillomavirus type 16) (UniProt P06927). The assay can be described thus: co-IP; HEK-293T transfected, lysed 20-24 h after transfection in CHAPS buffer (0.2 M NaCl, 50 mM HEPES pH 7.5, 2% CHAPS); immunoprecipitation by the tag of E5 (anti-AU1, anti-HA or anti-GFP), protein G-sepharose, blot with anti-calnexin.
For assay [4], the target named is AU1-tagged codon-optimised HPV16 E5 (human papillomavirus type 16) (UniProt P06927). The description is as above.
For assay [5], the target named is GFP-E5 fusion (pEGFP-HPV16-E5) (human papillomavirus type 16) (UniProt P06927). The assay is described as above.

Take “AU1-tagged codon-optimised HPV16 E5 (from UniProt P06927 1-83)”: the binding result in assay [1] is listed as “binds”.

On to “HA-tagged HPV16 E5 (pCI-HPV16-E5-HA) (from UniProt P06927 2-83)”, for which the binding entry in assay [1] is recorded as “binds”.

B1: calnexin (protein, UniProt P27824 21-592)
chain: HDGHDDDVIDIEDDLDDVIEEVEDSKPDTTAPPSSPKVTYKAPVPTGEVYFADSFDRGTLSGWILSKAKKDDTDDEIAKYDGKWEVEEMKESKLPGDKGLVLMSRAKHHAISAKLNKPFLFDTKPLIVQYEVNFQNGIECGGAYVKLLSKTPELNLDQFHDKTPYTIMFGPDKCGEDYKLHFIFRHKNPKTGIYEEKHAKRPDADLKTYFTDKKTHLYTLILNPDNSFEILVDQSVVNSGNLLNDMTPPVNPSREIEDPEDRKPEDWDERPKIPDPEAVKPDDWDEDAPAKIPDEEATKPEGWLDDEPEYVPDPDAEKPEDWDEDMDGEWEAPQIANPRCESAPGCGVWQRPVIDNPNYKGKWKPPMIDNPSYQGIWKPRKIPNPDFFEDLEPFRMTPFSAIGLELWSMTSDIFFDNFIICADRRIVDDWANDGWGLKKAADGAAEPGVVGQMIEAAEERPWLWVVYILTVALPVFLVILFCCSGKKQTSGMEYKKTDAPQPDVKEEEEEKEEEKDKGDEEEEGEEKLEEKQKSDAEEDGGTVSQEEEDRKPKAEEDEILNRSPRNRKPRRE
Turning to B1, the binding result in assay [2], in assay [3], in assay [4] and in assay [5] was “binds” in each case.
